Values from PubChem BioAssay AID1159579 (Peter MacCallum Cancer Centre, 2015).
The deposit covers about 2,000 reagents; shown is an unselected part. In the full data, 549 (27%) were called active. 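Some migration ratios are negative; siRNAs with too few cells are inactive whatever their migration ratio.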 Reagents against one gene are numbered here. Not all columns of the deposit are shown. Not given: the time to read-out.

Screen: 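Retest candidate lymphatic endothelial migration regulators using several independent siRNAs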 (follow-up of hits)
Cell system: human dermal lymphatic endothelial cells
Reagent: single siRNA against human genes, 25 nM
Detection: 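High content images of wound closure area and cell nuclei counts, each the average of two wells, expressed against mock transfection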
Reading the numbers: migration relative to mock: higher = more migration into the scratch; mean nuclei count: higher = more cells remaining
Rule for the call: 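a ratio of at most 0.6 or at least 1.3 marks altered migration and an active call; a mean nuclei count under 3300 forces an inactive call regardless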
Meaning of the calls: active = migration changed (impaired or accelerated); inactive = no migration change, or too few cells

With TMEM218 (transmembrane protein 218) #1, what was measured?
migration relative to mock: 0.7; mean nuclei count: 5820; call: inactive

What did the screen give for TMEM218 (transmembrane protein 218) #2?
migration relative to mock: 0.94; mean nuclei count: 6589; call: inactive

What did the screen give for TMEM218 (transmembrane protein 218) #3?
migration relative to mock: 0.62; mean nuclei count: 6348; call: inactive

With TMEM218 (transmembrane protein 218) #4, what was measured?
migration relative to mock: 0.35; mean nuclei count: 4538; call: active

Which result is listed for SNAI1 (snail family transcriptional repressor 1) #1?
migration relative to mock: 0.86; mean nuclei count: 4578; call: inactive

With SNAI1 (snail family transcriptional repressor 1) #2, what was measured?
migration relative to mock: 0.46; mean nuclei count: 4494; call: active

How did the screen score SNAI1 (snail family transcriptional repressor 1) #3?
migration relative to mock: 0.62; mean nuclei count: 5116; call: inactive

Which result is listed for SNAI1 (snail family transcriptional repressor 1) #4?
migration relative to mock: 0.99; mean nuclei count: 6908; call: inactive

With ATRAID (all-trans retinoic acid induced differentiation factor) #1, what was measured?
migration relative to mock: 0.47; mean nuclei count: 4044; call: active

Which result is listed for ATRAID (all-trans retinoic acid induced differentiation factor) #2?
migration relative to mock: 0.8; mean nuclei count: 5668; call: inactive

What is on record for ATRAID (all-trans retinoic acid induced differentiation factor) #3?
migration relative to mock: 0.59; mean nuclei count: 4826; call: active

With ATRAID (all-trans retinoic acid induced differentiation factor) #4, what does the deposit list?
migration relative to mock: 0.34; mean nuclei count: 5070; call: active

Which result is listed for GCK (glucokinase) #1?
migration relative to mock: -0.14; mean nuclei count: 4322; call: active

What did the screen give for GCK (glucokinase) #2?
migration relative to mock: -0.38; mean nuclei count: 2242; call: inactive

For GCK (glucokinase) #3, what does the deposit list?
migration relative to mock: 0.86; mean nuclei count: 6912; call: inactive

How did the screen score GCK (glucokinase) #4?
migration relative to mock: 0.38; mean nuclei count: 5606; call: active

With PALM2AKAP2 (PALM2 and AKAP2 fusion) #1, what was measured?
migration relative to mock: 1.05; mean nuclei count: 5360; call: inactive

For PALM2AKAP2 (PALM2 and AKAP2 fusion) #2, what does the deposit list?
migration relative to mock: 1.1; mean nuclei count: 5218; call: inactive

With PALM2AKAP2 (PALM2 and AKAP2 fusion) #3, how do the results read?
migration relative to mock: 1.06; mean nuclei count: 5767; call: inactive

How did the screen score PALM2AKAP2 (PALM2 and AKAP2 fusion) #4?
migration relative to mock: 0.73; mean nuclei count: 5304; call: inactive

What is on record for DHX16 (DEAH-box helicase 16) #1?
migration relative to mock: 0.64; mean nuclei count: 5483; call: inactive

With DHX16 (DEAH-box helicase 16) #2, what does the deposit list?
migration relative to mock: 0.9; mean nuclei count: 5590; call: inactive

With DHX16 (DEAH-box helicase 16) #3, how do the results read?
migration relative to mock: 0.67; mean nuclei count: 5684; call: inactive

With DHX16 (DEAH-box helicase 16) #4, what does the deposit list?
migration relative to mock: 0.72; mean nuclei count: 6068; call: inactive

How did the screen score ADNP2 (ADNP homeobox 2) #1?
migration relative to mock: 1.04; mean nuclei count: 6244; call: inactive

How did the screen score ADNP2 (ADNP homeobox 2) #2?
migration relative to mock: 0.76; mean nuclei count: 4102; call: inactive

For ADNP2 (ADNP homeobox 2) #3, what does the deposit list?
migration relative to mock: 0.82; mean nuclei count: 5246; call: inactive

For ADNP2 (ADNP homeobox 2) #4, what does the deposit list?
migration relative to mock: 0.82; mean nuclei count: 5184; call: inactive

What is on record for VSTM1 (V-set and transmembrane domain containing 1) #1?
migration relative to mock: 0.64; mean nuclei count: 4745; call: inactive

What is on record for VSTM1 (V-set and transmembrane domain containing 1) #2?
migration relative to mock: 0.43; mean nuclei count: 6424; call: active

For VSTM1 (V-set and transmembrane domain containing 1) #3, how do the results read?
migration relative to mock: 0.94; mean nuclei count: 5260; call: inactive

For VSTM1 (V-set and transmembrane domain containing 1) #4, how do the results read?
migration relative to mock: 0.86; mean nuclei count: 4471; call: inactive

For AKT3 (AKT serine/threonine kinase 3) #1, how do the results read?
migration relative to mock: 0.23; mean nuclei count: 5644; call: active

How did the screen score AKT3 (AKT serine/threonine kinase 3) #2?
migration relative to mock: -0.24; mean nuclei count: 4296; call: active

How did the screen score AKT3 (AKT serine/threonine kinase 3) #3?
migration relative to mock: 0.53; mean nuclei count: 5706; call: active

With AKT3 (AKT serine/threonine kinase 3) #4, how do the results read?
migration relative to mock: 0.78; mean nuclei count: 4584; call: inactive

Ordered by “mean nuclei count” (descending): 3 of the entries above.
SNAI1 (snail family transcriptional repressor 1) #1: migration relative to mock = 0.86; mean nuclei count = 4578; call = inactive
TMEM218 (transmembrane protein 218) #4: migration relative to mock = 0.35; mean nuclei count = 4538; call = active
SNAI1 (snail family transcriptional repressor 1) #2: migration relative to mock = 0.46; mean nuclei count = 4494; call = active
